The target of the test is Spindle and Kinetochore Associated Protein 3 (SKA3) (human (endogenous in A549)) (UniProt Q8IX90). Nature of the test: affinity purification with mass spectrometry; IP with SKA3 antibody from total lysate of A549 cells, IgG antibody as negative control; silver-stained PAGE gel and mass spectrometry.

Sequences of proteins named here, by UniProt entry; tags and fusion partners are left off.
UniProt Q8IX90: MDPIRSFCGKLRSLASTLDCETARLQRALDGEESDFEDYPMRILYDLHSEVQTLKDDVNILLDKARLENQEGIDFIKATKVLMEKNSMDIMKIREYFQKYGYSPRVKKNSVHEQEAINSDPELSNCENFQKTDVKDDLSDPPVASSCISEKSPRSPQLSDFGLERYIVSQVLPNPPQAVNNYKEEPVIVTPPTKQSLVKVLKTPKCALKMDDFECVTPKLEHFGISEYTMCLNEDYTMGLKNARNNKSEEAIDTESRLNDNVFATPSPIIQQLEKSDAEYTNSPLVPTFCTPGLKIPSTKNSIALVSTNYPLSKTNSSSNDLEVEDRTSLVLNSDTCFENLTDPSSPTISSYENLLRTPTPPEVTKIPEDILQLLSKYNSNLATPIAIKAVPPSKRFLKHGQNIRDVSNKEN
UniProt Q9GZT9: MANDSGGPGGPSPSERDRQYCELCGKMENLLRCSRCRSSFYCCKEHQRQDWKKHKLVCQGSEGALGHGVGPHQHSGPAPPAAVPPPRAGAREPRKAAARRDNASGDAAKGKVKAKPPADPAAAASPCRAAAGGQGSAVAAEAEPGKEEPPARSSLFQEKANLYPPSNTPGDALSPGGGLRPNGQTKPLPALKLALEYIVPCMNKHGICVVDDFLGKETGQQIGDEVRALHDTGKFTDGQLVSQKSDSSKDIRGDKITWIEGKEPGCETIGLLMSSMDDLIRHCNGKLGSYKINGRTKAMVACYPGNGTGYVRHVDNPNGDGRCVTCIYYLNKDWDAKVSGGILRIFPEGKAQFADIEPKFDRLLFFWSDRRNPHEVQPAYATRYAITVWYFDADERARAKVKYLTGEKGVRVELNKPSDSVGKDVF

Experimental findings from publication PMC12827483 are described below.

These are yes or no findings as the source states them, for the method shown. Binding seen in cells or lysates may run through a third protein. These calls come from enrichment with a bait or labelling near it, and not all partners need be listed.

Take “Prolyl Hydroxylase Domain-containing protein 2 (PHD2) (from UniProt Q9GZT9 1-426) (enzyme)”: the binding entry is on record as “binds”.
